In PMC3883301, “FLC-mediated flowering repression is positively regulated by sumoylation” (Journal of Experimental Botany, 2013):
Where a chain is given by its changes, count along the chain named. Names and notes keep the numbering of the source. Results are given in words; binding and its absence hold for the method and conditions named. For some assays here: Binding seen in cells or lysates may run through a third protein. Some results given as binding are weak or reduced against the parent protein; the word gives no strength. For some assays here: Where a sequence is shown, tags or fusion partners need not be part of it.

What was measured:
[1] = molecular target: T1, nEYFP–SIZ1 (Arabidopsis thaliana) (UniProt Q680Q4); assay: split reporter; BiFC; nEYFP–SIZ1 and cEYFP–FLC constructs mixed 1:1 and co-bombarded into onion epidermal cells, 25 °C in the dark for 16 h, confocal microscopy
T1 sequence: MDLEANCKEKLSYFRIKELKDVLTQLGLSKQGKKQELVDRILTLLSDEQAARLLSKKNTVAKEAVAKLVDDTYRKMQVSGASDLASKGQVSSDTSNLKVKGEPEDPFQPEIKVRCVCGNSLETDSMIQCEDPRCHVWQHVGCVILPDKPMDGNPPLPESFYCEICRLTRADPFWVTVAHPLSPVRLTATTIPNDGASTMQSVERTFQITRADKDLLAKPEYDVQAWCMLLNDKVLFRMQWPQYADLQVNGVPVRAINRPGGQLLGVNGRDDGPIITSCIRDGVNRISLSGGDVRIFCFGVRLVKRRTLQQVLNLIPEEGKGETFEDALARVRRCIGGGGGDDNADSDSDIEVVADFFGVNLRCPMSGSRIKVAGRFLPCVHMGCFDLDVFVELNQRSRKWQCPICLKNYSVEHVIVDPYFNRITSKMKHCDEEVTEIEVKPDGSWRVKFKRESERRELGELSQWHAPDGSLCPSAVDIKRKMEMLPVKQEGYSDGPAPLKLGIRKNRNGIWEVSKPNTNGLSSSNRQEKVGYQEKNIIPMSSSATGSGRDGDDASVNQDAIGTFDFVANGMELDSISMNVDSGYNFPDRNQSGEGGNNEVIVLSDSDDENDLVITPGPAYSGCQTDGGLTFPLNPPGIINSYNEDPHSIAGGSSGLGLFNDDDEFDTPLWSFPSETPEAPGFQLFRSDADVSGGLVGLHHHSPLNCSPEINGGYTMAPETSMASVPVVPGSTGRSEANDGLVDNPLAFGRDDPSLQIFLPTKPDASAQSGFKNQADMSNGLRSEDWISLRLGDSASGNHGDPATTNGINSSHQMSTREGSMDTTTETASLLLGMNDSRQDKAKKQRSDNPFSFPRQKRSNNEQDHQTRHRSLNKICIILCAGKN

[2] = molecular target: T2, MBP–AtSIZ1, full length (Arabidopsis thaliana) (UniProt Q680Q4); assay: pull-down; 2 μg MBP–AtSIZ1 bait and 2 μg His6-FLC or His6-mFLC prey in 1 ml binding buffer (50 mM TRIS-HCl pH 7.5, 100 mM NaCl, 1% Triton X-100, 0.2% glycerol, 0.5 mM β-mercaptoethanol); 25 °C 2 h; amylose resin; anti-His blot; both purified
T2 sequence: T1 sequence

[3] = molecular target: T3, GST–AtSIZ1 (GS), full length (Arabidopsis thaliana) (UniProt Q680Q4); assay: pull-down; 2 μg GST–AtSIZ1 (full length or deletion mutant) or GST bait and 2 μg His6-FLC prey in 1 ml 50 mM TRIS-HCl pH 7.5, 100 mM NaCl, 1% Triton X-100, 0.2% glycerol, 0.5 mM β-mercaptoethanol; 25 °C 2 h; glutathione resin; anti-His blot; both purified
T3 sequence: T1 sequence

[4] = molecular target: T4, BD-IAA4 (INDOLEACETIC ACID 4) (UniProt P33077); assay: two-hybrid; GAL4-based system (Clontech), AD-AtSIZ1 (pGAD424) and BD-IAA4 (pGBT8) in yeast AH109; growth on –Leu/–Trp/–His
T4 sequence: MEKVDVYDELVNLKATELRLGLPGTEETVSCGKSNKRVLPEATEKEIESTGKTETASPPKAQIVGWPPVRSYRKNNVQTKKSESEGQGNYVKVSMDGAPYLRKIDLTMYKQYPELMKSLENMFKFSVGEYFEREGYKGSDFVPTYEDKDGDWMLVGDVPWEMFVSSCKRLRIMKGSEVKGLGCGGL

cEYFP–FLC (from UniProt Q9S7Q7 1-196)
binding [1]: binds

B1: His6-FLC (flowering locus C, full length) (natural protein, Arabidopsis thaliana, UniProt Q9S7Q7 1-196, looked up)
chain: MGRKKLEIKRIENKSSRQVTFSKRRNGLIEKARQLSVLCDASVALLVVSASGKLYSFSSGDNLVKILDRYGKQHADDLKALDHQSKALNYGSHYELLELVDSKLVGSNVKNVSIDALVQLEEHLETALSVTRAKKTELMLKLVENLKEKEKMLKEENQVLASQMENNHHVGAEAEMEMSPAGQISDNLPVTLPLLN
notes: Flowering locus C (FLC), MADS-box transcription factor, Arabidopsis; full-length cDNA in pET28a; The printed name puts His6 before FLC; also called Arabidopsis FLC; source: E. coli BL21/DE3 (pLysS), purified (Ni2+-NTA resin)
binding [2]: binds | binding [3]: binds

B2: His6-mFLC (FLC K154R) (natural protein, Arabidopsis thaliana, UniProt Q9S7Q7 1-196, looked up)
chain: B1 chain with K154R
notes: Flowering locus C (FLC), Arabidopsis, full length with the sumoylation site mutation K154R; The construct section describes His6-FLC(K154R)-Myc only; also called mutant FLC; source: E. coli BL21, purified (Ni2+-NTA resin)
binding [2]: binds

B3: AD-AtSIZ1 (protein, UniProt Q680Q4 1-884)
chain: T1 sequence
binding [4]: binds
